Reference: paper doi:10.1101/463919
Results are given in words; binding and its absence hold for the method and conditions named. Binding seen in cells or lysates may run through a third protein. A yes stands for co-enrichment or nearness to the bait. Other partners may have been found. No binding means not detected with the bait. Sequences can lack the tags named with a protein. One block for each binder: values may come before it.

Experiments:
Experiment in all cases: affinity purification with mass spectrometry
[1] = target: T1, GFP-3xFLAG tagged TOFU-6 (C. elegans) (UniProt Q09293)
T1 sequence: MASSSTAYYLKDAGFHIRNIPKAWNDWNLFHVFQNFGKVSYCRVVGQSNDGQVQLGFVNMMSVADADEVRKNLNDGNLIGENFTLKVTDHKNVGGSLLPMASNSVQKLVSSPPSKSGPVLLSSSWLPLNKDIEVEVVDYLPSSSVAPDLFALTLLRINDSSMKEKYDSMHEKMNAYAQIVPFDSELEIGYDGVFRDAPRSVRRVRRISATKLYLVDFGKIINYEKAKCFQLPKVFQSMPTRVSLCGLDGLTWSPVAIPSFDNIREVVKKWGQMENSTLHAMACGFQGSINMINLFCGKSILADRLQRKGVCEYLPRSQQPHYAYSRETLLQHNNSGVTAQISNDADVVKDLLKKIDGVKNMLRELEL

[2] = target: T2, GFP-3xFLAG tagged ERH-2 (C. elegans) (UniProt Q20057)
T2 sequence: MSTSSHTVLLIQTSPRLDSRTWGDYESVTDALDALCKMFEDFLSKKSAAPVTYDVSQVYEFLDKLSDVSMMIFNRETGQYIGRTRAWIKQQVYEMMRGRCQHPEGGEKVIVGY

[3] = target: T3, GFP-3xFLAG tagged TOST-1 (C. elegans) (UniProt Q18490)
T3 sequence: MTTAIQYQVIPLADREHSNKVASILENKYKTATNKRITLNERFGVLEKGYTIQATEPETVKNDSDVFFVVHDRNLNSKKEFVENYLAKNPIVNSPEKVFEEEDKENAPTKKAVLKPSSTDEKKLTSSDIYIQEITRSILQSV

[4] = target: T4, GFP::3xFLAG tagged PICS-1 (C. elegans) (UniProt O76616)
T4 sequence: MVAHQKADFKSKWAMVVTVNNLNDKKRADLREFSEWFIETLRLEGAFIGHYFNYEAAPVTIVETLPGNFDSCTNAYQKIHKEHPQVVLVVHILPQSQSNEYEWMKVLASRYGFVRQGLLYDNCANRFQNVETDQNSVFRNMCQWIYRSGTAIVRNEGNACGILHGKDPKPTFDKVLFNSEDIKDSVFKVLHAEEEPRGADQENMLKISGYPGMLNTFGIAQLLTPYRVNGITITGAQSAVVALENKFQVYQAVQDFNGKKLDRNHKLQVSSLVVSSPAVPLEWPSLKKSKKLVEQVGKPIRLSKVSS

B3: PARN-1 (protein, UniProt Q21412 1-566)
chain: MVIVTDSNFLDAAGTLRKGLLYCDFVAIDFEFLGLDVSAISLHDTVESRYQILRDNVIKYRPCQLGLTLFKQKSNRAYKADTYSVPLFQRFGDNDTSISLPSMRFLVKNKFNLNQVFMDGVEFCTRKEFKKFERALLAGTAASYLSREVKSQIELLKVMVHEKCYQSTSYHITHRTDEPMQKIPLKMKPNSSVSLRMPRNLSSVEKYMIIYELTKAFPQFLFTCDEKQQNLHVKNISDDYLKEKDNLERARARCSESVKGVSAILQVVHMTGKLVVGHNSLLDAMYMYHYFFSHLPANYQMFKDKFNALFPRIMDTKLLAQALRFELPGVGDSLENLGDYFGSDKSDKTVPPELRGFIEPWMNPLEDESENVYHNAGFDSYVTGEVFLKLAHIYINRRNNFKNEILDFDRIYQYLEAPILNRLPFQLMDVGCCYLTGDDSKGFRPDVITIVRRDRVAIEEDEFRYLEKALGTLMATYQFDIEWSKNKKELFLATNSPGSYAFLCEKFSNDSSLAPLDELDSGKKWTFEQRQTAWRSFKNRGVGIGINAKRIRAQNQATKIQRAMEI
- binding [2]: no binding
- binding [1]: no binding
- binding [3]: no binding
- binding [4]: no binding

B4: IFE-3 (protein, UniProt O61955 1-251)
chain: MSTSVAENKALSASGDVNASDASVPPELLTRHPLQNRWALWYLKADRNKEWEDCLKMVSLFDTVEDFWSLYNHIQSAGGLNWGSDYYLFKEGIKPMWEDVNNVQGGRWLVVVDKQKLQRRTQLLDHYWLELLMAIVGEQFDEYGDYICGAVVNVRQKGDKVSLWTRDATRDDVNLRIGQVLKQKLSIPDTEILRYEVHKDSSARTSSTVKPRICLPAKDPAPVKEKGPAATTSPSNPGTEATGTSPATPTP
- binding [1]: binds
- binding [3]: binds

Other lines, results leading:

- binding [1]: binds
B1: PID-1 (protein, UniProt Q19541 1-169)
chain: MSAKREFSHITLASTPFKKRIDQNSLKTDSDIEKDTNIAHKCAERFNYNTNLHRKVTLSDRFELAALGYEMKAKPRTIIEKHNDCDEFHFIYRKEKKNDYGTGSPLSAGLSLSNPLPAGRGFLSPAIQNTSNQFTFSGSPRITPQKHTPVSANHKPARSIFDDIPSNIA

- binding [1]: binds
B2: TOST-1 (twenty-one u antagonist-1) (protein, UniProt Q18490 1-142)
chain: T3 sequence
